# Laboratory results from paper PMC7819943, “Rice protein-binding microarrays: a tool to detect cis-acting elements near promoter regions in rice”.
# The other results are listed elsewhere or left out.
# Molecular target: T1, OsSMF1 (Oryza sativa, UniProt Q6ZLB0 1-436)
# T1 sequence: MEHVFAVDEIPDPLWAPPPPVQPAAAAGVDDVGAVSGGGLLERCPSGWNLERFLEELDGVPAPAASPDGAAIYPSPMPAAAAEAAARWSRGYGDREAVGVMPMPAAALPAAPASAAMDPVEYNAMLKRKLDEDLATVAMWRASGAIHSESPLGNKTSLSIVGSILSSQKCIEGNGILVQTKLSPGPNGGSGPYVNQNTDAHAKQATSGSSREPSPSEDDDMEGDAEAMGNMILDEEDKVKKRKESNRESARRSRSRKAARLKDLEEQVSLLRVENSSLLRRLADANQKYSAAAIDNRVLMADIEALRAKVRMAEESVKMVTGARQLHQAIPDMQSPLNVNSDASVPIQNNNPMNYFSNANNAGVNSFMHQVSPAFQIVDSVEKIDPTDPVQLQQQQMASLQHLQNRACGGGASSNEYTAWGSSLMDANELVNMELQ
# Assay: protein-binding microarray (RPBM); PBS, 2% BSA, 51.3 ng/ul salmon testes DNA, 50 uM zinc acetate, 200 nM TF, 25 C, 1 h; high values mean tight binding
# Conditions: protein: recombinant; tags: N-terminal polyhistidine and DsRed monomer fusion (pET32a); chain copies: 2; label: CyDye5-dUTP incorporated in the synthesized complementary strand; 3' TTTTT single-stranded linker to array surface; dsDNA, one strand shown
# In short: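 Binding signal is reported as fluorescence intensity per feature (arbitrary units) from an Axon 4000B scanner. Incubation used 200 nM of each Ni–NTA-purified, N-terminally polyhistidine- and DsRed-fused transcription factor from E. coli BL21-CodonPlus on a double-stranded custom Agilent array for 1 h at 25 °C, with 50 µM zinc acetate in the buffer, followed by washing.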
row,Sequence,binding signal
1,TGCTTCTTGCACCTCTCCTCCTCCACGCATTGCTTCTTGACGGAGTCACCTAGTGCAG,3880 fluorescence intensity (a.u.)
2,CTCTGCTCGCTCGCTCGCTCGTCTCCACACCTTCTCCTCCCGGAGTCACCTAGTGCAG,26700 fluorescence intensity (a.u.)
3,CAGCTTCTCTTCCTCCTGCAGTACTCGCCGCCACCACCACCGGAGTCACCTAGTGCAG,3420 fluorescence intensity (a.u.)
4,AGTAACAAAGCATATAGAAGAAAACAGTAGTTTTGACAGTCGGAGTCACCTAGTGCAG,3400 fluorescence intensity (a.u.)
5,TTTGAAATTTTGAATGTGACACCTATGGCCATGGTCGAACCGGAGTCACCTAGTGCAG,3350 fluorescence intensity (a.u.)
6,ACACATCAGAAGAAAAGTGTTGGCAATCCAGCCTGATCATCGGAGTCACCTAGTGCAG,3360 fluorescence intensity (a.u.)
7,GACGAGACCGACGCCGTCATCCTCCTTCTCACGCTACCATCGGAGTCACCTAGTGCAG,3300 fluorescence intensity (a.u.)
8,TGAGCCACGCACTGAACACGACCGTTCGATCCCCTCAAGGCGGAGTCACCTAGTGCAG,3810 fluorescence intensity (a.u.)
9,TTGGATCCAAACTTTAGTCCTTTTCCATCACATCAATCTGCGGAGTCACCTAGTGCAG,3500 fluorescence intensity (a.u.)
10,GGCGGTCGCCTGTGCTGGCTACGCGGGGATGGATGATGGTCGGAGTCACCTAGTGCAG,3360 fluorescence intensity (a.u.)
11,ATCCGTCCATCTCTCTTCCTCCCTCCCTTGCCTTCCGGACCGGAGTCACCTAGTGCAG,20800 fluorescence intensity (a.u.)
12,TTGCTACTTACTGGGTTTCAGTTGACATGGCTTTCGATGTCGGAGTCACCTAGTGCAG,3200 fluorescence intensity (a.u.)
13,ACGTCAGCCCAGCAGCATGCCACGATGTGTATTCGTGCCGCGGAGTCACCTAGTGCAG,3570 fluorescence intensity (a.u.)
14,CATTATCGTCCCATGTGTTGTCTGCATTGCGGCATGCGTTCGGAGTCACCTAGTGCAG,3630 fluorescence intensity (a.u.)
15,GATGCGCGCGAACGGAGACGACGGGGTAGGGTGGGGAGGGCGGAGTCACCTAGTGCAG,3940 fluorescence intensity (a.u.)
16,TTGACAGGATGCAAGCTGAGACACATCTGATGTCATATAACGGAGTCACCTAGTGCAG,4200 fluorescence intensity (a.u.)
17,CCCACATCGACCATCCTGCCTTGTACGTCATCCCCGCCCTCGGAGTCACCTAGTGCAG,7100 fluorescence intensity (a.u.)
18,ATAACAAAGATATAGTACTCCTACGTGGAATATATGTTTACGGAGTCACCTAGTGCAG,5200 fluorescence intensity (a.u.)
19,GGATCGAGAAGGAAGGAGGCGATGGATGGACTGACCTGGACGGAGTCACCTAGTGCAG,32400 fluorescence intensity (a.u.)
20,AGTTTATTTCTTGTATGTTTACATTATGCACACAATTGAGCGGAGTCACCTAGTGCAG,3170 fluorescence intensity (a.u.)
21,CTCATGTTCTTGACCCCTGCATCATCAAATACCTCACCTCCGGAGTCACCTAGTGCAG,4050 fluorescence intensity (a.u.)
22,TATCATTAGCAAATATTTACTGTAGCAACATATTGTCAAACGGAGTCACCTAGTGCAG,3180 fluorescence intensity (a.u.)
23,GAGGATGAACTGATGACGTGCAGCTTTGGATGGATGGAGTCGGAGTCACCTAGTGCAG,13200 fluorescence intensity (a.u.)
24,TGGCTAGTTTGGTAAAGTTAGTACAAAATTTAAAATTATGCGGAGTCACCTAGTGCAG,3650 fluorescence intensity (a.u.)
25,GCCCTCCTCCGCCGCCACCTCCCTCAAGGCCACCGCCGCACGGAGTCACCTAGTGCAG,3220 fluorescence intensity (a.u.)
26,GCACCGGCTCCAGTCCACCGGCCACACGTCAGCGACGCCTCGGAGTCACCTAGTGCAG,9880 fluorescence intensity (a.u.)
27,ATAGTGCCTTCCCTTTTACGTATCGTGCCACGTACACGTACGGAGTCACCTAGTGCAG,8650 fluorescence intensity (a.u.)

row,Sequence,binding signal
1,TTATTTGACAAAGTACACCAGCTGACGCAATGGCTGTAGTCGGAGTCACCTAGTGCAG,7340 fluorescence intensity (a.u.)
2,GCAGTTTGTCTCATGTGCTGCTGACTAGATATTGATCATACGGAGTCACCTAGTGCAG,11400 fluorescence intensity (a.u.)
3,CGGTGGAGCGGGCTGCACGGCGACCAGAGCGGCGACGTAGCGGAGTCACCTAGTGCAG,12300 fluorescence intensity (a.u.)
4,CAACGTGTTCAGCTACTCCCTCCACGCGGCAACCGACGCGCGGAGTCACCTAGTGCAG,4240 fluorescence intensity (a.u.)
5,CCGGAAAATCTATCTGTGCTTATAAATAGCCATTATCCAACGGAGTCACCTAGTGCAG,57400 fluorescence intensity (a.u.)
6,ATAATTATTCCAATGTGATATACATGCACACGTGTGAGTCCGGAGTCACCTAGTGCAG,5440 fluorescence intensity (a.u.)
7,TCTAGAGATGAAAAGCTCAGTACATGTCACACTTGTTCTGCGGAGTCACCTAGTGCAG,3700 fluorescence intensity (a.u.)
8,AATAGAGAAGAGGCTGACGTGGCTTCCTGACATGTGGGATCGGAGTCACCTAGTGCAG,14600 fluorescence intensity (a.u.)
9,GTTCTGTTTAGGGGCCGGGGTGGCATAACAGAATAAGTTGCGGAGTCACCTAGTGCAG,4470 fluorescence intensity (a.u.)
10,ACCTCACTCATCTATATGCATGATATAGCAGTTTGAGTATCGGAGTCACCTAGTGCAG,3140 fluorescence intensity (a.u.)
11,CATTTTGTACTTTGACAAGTATTTAATATTTGCCAGTAGTCGGAGTCACCTAGTGCAG,65100 fluorescence intensity (a.u.)
12,TATATAATTCTAATGTCATATAAGCGTCATGTGGGATGAACGGAGTCACCTAGTGCAG,4520 fluorescence intensity (a.u.)
13,CAGCTGGCACCACCCATTCCTCGCGTCGCATCGCACTTGTCGGAGTCACCTAGTGCAG,3170 fluorescence intensity (a.u.)
14,ACCATATCCTCTAGCAAGATATGCCATTAATCACCTAACACGGAGTCACCTAGTGCAG,3230 fluorescence intensity (a.u.)
15,CTGAGCACGAACGGAGAGCGTGGCCGTCGTGGAAGTACTACGGAGTCACCTAGTGCAG,5140 fluorescence intensity (a.u.)
16,GCCCCGGCGGTAAGCACGGTTACCGCACGGTAACCGCGGTCGGAGTCACCTAGTGCAG,20400 fluorescence intensity (a.u.)
17,CGACGCTGATCTCAAATATTTCGACCACCATTGCCCGTATCGGAGTCACCTAGTGCAG,3200 fluorescence intensity (a.u.)
18,CTAGGTCATCGATATGGGACGAGCCACGCACGCTAGAATACGGAGTCACCTAGTGCAG,3800 fluorescence intensity (a.u.)
19,CATTTAAAGTGGATAACTGATGAGGTGTCCTGCCATAATACGGAGTCACCTAGTGCAG,3980 fluorescence intensity (a.u.)
20,TTGGCGTGTGGATGTGTGCGTAACGGCTAATTTGGTTCGGCGGAGTCACCTAGTGCAG,3350 fluorescence intensity (a.u.)
21,ACCATATATACTCCCTCTATTTCAAAATGTTTGACACCGTCGGAGTCACCTAGTGCAG,3340 fluorescence intensity (a.u.)
22,CCTTTTGTCTCAGCCCACTAGATACGTCATCTTGGTGGCCCGGAGTCACCTAGTGCAG,5200 fluorescence intensity (a.u.)
23,GTATATAGGTGGCCAACTCGTTCCTCTGTTAATAACCAATCGGAGTCACCTAGTGCAG,3300 fluorescence intensity (a.u.)
24,GTTCTGTGAGAAATTTTGTTGTTAAATTTGTAGTTTTGTGCGGAGTCACCTAGTGCAG,3510 fluorescence intensity (a.u.)
25,AAGTGACTCCCACCCTCGACCCTTCCGTCAGCGGGAAATTCGGAGTCACCTAGTGCAG,3240 fluorescence intensity (a.u.)
26,TTGTGTTACAGAAAACATTCAAACCTTTATCATCAGAGGGCGGAGTCACCTAGTGCAG,7190 fluorescence intensity (a.u.)
27,ATATTCTGATATGTCAATATTATTGTGTATGATTGATTGTCGGAGTCACCTAGTGCAG,46700 fluorescence intensity (a.u.)

# Single values from the results shown.
# GTTCTGTTTAGGGGCCGGGGTGGCATAACAGAATAAGTTGCGGAGTCACCTAGTGCAG – binding signal: 4470 fluorescence intensity (a.u.)
# TTGTGTTACAGAAAACATTCAAACCTTTATCATCAGAGGGCGGAGTCACCTAGTGCAG – binding signal: 7190 fluorescence intensity (a.u.)
# CGACGCTGATCTCAAATATTTCGACCACCATTGCCCGTATCGGAGTCACCTAGTGCAG – binding signal: 3200 fluorescence intensity (a.u.)
